Measured values reported in PMC5973557.
Results are given in words; binding and its absence hold for the method and conditions named. Binding seen in cells or lysates may run through a third protein. Sequences can lack the tags named with a protein.

Amino acid sequences for entries named in this document (tags omitted).
UniProt Q10411: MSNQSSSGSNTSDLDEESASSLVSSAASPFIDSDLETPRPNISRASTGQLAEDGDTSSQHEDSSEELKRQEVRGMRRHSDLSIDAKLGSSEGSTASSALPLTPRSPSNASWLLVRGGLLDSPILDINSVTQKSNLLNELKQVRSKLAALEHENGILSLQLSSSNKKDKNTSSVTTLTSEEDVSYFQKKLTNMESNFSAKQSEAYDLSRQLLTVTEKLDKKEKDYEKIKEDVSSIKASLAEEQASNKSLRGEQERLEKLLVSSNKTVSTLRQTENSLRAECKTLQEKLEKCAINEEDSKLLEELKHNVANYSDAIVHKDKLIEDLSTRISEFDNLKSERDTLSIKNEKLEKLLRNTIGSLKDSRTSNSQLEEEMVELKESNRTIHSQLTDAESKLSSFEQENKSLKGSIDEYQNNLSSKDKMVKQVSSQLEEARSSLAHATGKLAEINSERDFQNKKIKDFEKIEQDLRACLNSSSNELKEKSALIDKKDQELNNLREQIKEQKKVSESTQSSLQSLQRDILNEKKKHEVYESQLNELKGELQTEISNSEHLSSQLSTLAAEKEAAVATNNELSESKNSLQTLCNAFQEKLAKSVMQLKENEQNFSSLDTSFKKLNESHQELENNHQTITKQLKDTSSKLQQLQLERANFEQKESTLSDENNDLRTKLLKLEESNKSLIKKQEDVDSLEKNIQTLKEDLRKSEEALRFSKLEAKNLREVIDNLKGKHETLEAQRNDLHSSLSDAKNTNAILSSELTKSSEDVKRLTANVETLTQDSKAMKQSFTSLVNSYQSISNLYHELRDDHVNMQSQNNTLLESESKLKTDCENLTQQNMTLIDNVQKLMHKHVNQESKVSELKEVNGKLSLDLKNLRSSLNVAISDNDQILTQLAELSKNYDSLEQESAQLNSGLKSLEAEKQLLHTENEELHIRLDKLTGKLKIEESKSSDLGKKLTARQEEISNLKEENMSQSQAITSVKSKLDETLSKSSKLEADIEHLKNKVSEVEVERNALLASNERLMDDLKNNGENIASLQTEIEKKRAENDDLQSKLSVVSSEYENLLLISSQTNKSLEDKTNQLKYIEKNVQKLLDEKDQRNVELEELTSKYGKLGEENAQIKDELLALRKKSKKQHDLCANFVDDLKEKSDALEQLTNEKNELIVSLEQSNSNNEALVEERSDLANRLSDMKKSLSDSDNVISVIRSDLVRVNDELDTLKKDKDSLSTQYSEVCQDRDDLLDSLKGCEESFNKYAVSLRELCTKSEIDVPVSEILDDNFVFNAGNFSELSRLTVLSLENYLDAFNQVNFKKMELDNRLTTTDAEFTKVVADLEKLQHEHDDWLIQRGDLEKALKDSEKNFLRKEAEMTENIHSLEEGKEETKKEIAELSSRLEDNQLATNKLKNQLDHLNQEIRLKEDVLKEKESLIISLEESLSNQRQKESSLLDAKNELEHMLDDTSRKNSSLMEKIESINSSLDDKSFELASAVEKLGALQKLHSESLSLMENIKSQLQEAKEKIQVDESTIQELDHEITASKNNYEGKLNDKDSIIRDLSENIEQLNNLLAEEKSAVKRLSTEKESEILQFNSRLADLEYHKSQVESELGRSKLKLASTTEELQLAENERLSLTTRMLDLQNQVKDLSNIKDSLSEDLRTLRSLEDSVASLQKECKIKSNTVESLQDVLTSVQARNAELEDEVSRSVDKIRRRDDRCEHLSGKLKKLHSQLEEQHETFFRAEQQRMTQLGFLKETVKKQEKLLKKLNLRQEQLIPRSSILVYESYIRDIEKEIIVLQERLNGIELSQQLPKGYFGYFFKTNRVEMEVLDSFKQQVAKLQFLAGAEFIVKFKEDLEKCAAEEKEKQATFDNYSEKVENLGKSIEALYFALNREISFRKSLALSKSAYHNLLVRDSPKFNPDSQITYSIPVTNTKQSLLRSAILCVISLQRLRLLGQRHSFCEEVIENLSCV

Molecular target: T1, GST-Dms1 (S. pombe) (UniProt O74466)
T1 sequence: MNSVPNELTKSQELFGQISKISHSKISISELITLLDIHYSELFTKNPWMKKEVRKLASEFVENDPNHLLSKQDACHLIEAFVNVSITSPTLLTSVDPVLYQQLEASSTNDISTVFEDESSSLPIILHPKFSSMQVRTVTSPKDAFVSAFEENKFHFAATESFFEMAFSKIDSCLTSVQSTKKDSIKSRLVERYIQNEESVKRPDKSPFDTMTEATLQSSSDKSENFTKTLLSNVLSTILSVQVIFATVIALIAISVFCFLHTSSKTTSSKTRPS
Experiment: pull-down; cell extracts from vegetative S. pombe cells expressing GST or GST-Dms1; precipitates analysed by western blotting with anti-GFP or anti-Spo15 antibody (S3 Fig B)

Substance: Spo15 (from UniProt Q10411 1-1957)
- binding: no binding
